Laboratory results reported in the supplement of paper PMC10849652.
The list shows a part of the results.

By UniProt entry, the sequences of proteins in these tests, tags left out. Where a name states a change or a piece, a line headed by the entry shows the natural chain unless it says otherwise.
UniProt Q9NQG6: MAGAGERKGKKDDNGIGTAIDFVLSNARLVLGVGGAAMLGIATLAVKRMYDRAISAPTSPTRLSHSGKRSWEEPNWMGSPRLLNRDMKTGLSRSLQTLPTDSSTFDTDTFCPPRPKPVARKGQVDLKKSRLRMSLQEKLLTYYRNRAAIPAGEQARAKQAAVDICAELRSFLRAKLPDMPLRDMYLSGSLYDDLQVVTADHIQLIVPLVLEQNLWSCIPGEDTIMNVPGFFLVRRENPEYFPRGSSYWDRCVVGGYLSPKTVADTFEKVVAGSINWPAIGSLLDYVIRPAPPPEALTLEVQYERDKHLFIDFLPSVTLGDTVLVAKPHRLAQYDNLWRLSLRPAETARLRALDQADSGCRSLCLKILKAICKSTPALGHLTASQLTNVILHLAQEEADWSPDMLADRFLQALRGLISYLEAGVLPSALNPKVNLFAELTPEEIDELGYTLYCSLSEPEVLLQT
UniProt Q15014, whole entry, looked up: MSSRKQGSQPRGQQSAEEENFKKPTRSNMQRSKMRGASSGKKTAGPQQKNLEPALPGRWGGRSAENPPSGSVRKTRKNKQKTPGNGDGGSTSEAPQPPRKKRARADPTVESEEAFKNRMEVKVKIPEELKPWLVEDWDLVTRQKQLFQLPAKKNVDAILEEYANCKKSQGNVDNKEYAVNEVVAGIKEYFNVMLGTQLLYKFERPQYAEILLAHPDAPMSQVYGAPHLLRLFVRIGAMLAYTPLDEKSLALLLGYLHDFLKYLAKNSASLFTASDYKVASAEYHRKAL
UniProt Q8NHP6: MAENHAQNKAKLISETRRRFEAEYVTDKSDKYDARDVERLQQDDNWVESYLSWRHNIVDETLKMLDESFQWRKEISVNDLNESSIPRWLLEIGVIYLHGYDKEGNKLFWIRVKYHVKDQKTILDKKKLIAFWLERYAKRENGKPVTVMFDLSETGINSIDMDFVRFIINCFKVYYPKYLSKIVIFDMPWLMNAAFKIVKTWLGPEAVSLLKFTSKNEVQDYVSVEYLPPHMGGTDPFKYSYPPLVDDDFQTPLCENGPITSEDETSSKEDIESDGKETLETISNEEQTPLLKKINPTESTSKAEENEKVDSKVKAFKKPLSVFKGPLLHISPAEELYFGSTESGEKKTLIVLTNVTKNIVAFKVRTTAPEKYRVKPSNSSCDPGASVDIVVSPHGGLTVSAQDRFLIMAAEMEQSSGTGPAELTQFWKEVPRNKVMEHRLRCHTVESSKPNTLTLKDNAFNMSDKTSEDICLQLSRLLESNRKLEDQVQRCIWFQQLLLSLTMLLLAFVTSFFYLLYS
UniProt Q99547: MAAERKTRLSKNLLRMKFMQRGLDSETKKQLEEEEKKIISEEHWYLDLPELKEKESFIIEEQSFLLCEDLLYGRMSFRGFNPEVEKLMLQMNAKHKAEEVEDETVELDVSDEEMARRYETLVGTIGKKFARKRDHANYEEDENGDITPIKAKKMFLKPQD
UniProt Q9BWT6: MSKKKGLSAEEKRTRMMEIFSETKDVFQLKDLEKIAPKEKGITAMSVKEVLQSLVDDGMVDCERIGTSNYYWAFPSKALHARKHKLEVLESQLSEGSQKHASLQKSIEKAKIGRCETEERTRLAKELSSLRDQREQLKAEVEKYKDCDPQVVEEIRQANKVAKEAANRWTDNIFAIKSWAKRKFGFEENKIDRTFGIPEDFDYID
UniProt Q9BPX6: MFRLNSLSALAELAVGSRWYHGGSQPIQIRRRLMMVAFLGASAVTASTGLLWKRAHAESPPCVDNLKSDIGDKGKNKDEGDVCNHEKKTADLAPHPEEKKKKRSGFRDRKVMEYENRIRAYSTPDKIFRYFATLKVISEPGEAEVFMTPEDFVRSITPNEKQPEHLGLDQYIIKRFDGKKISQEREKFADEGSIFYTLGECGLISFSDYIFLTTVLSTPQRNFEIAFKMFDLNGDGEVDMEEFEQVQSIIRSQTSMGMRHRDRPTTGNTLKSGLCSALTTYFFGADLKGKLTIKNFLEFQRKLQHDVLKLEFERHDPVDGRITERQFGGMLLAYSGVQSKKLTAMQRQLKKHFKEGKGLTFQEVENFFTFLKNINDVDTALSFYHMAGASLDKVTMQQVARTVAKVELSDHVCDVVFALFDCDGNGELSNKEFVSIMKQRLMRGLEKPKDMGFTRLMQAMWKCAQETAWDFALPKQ
UniProt Q5XKP0: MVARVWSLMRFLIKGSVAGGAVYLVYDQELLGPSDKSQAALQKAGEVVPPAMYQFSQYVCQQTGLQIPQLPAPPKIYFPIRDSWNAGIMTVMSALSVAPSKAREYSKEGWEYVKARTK

Experiments:
Experiment in all cases: log2 fold change, soluble protein after heating vs DMSO (PISA); higher = thermal stabilisation; K562 cells, 10 uM, 30 min; active = over 0.2 and 3.5 SD of the protein, either way, in both replicates (recomputed)
bafetinib = compound: Cc1ccc(NC(=O)c2ccc(CN3CC[C@H](N(C)C)C3)c(C(F)(F)F)c2)cc1Nc1nccc(-c2cncnc2)n1 [bafetinib]
Summary of the method: (§1)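 K562 cells at 2×10^6 cells/mL were exposed to 10 μM compound for 30 min, then aliquots were heated for 3 min across 48°C-58°C, pooled, and extracted in PBS containing 0.5% NP-40 at 4°C. The supernatant after 21,000xg for 90 min was taken as soluble protein and measured by TMTpro 16plex LC-MS/MS with channel sums equalised. Thermal stability is reported relative to control samples, with values from duplicates. Fold changes are given on a log2 scale.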

[1] = compound: Cc1cccc(CC(=O)N2CCc3c2ccc(-c2cn(C)c4ncnc(N)c24)c3F)n1
Summary of the method: as §1

nilotinib = compound: Cc1cn(-c2cc(NC(=O)c3ccc(C)c(Nc4nccc(-c5cccnc5)n4)c3)cc(C(F)(F)F)c2)cn1 [nilotinib]
Summary of the method: as §1

[2] = compound: Cc1nc(Nc2n[nH]c3c2CN(C(=O)N[C@H](CN(C)C)c2ccccc2)C3(C)C)c2sccc2n1
Summary of the method: as §1

dasatinib = compound: Cc1nc(Nc2ncc(C(=O)Nc3c(C)cccc3Cl)s2)cc(N2CCN(CCO)CC2)n1 [dasatinib]
Summary of the method: as §1

[3] = compound: Cc1ncc(-c2ccnc(Nc3ccc(S(C)(=O)=O)cc3)n2)n1C(C)C
Summary of the method: as §1

[4] = compound: Cn1cc(-c2ccc3c(c2)CCN3C(=O)Cc2cccc(C(F)(F)F)c2)c2c(N)ncnc21
Summary of the method: as §1

[5] = compound: Cn1cc(-c2ccc3nnc(C(F)(F)c4ccc5ncccc5c4)n3n2)cn1
Summary of the method: as §1

tipifarnib = compound: Cn1cncc1[C@@](N)(c1ccc(Cl)cc1)c1ccc2c(c1)c(-c1cccc(Cl)c1)cc(=O)n2C [tipifarnib]
Summary of the method: as §1

mubritinib = compound: FC(F)(F)c1ccc(/C=C/c2nc(COc3ccc(CCCCn4ccnn4)cc3)co2)cc1 [mubritinib]
Summary of the method: as §1

[6] = compound: NC(=O)Nc1cc(-c2cccc(F)c2)sc1C(=O)N[C@H]1CCCNC1
Summary of the method: as §1

[7] = compound: NC(=O)c1cnc(N[C@@H]2CCCC[C@@H]2N)nc1Nc1cccc(-n2nccn2)c1
Summary of the method: as §1

[8] = compound: NC1(c2ccc(-c3nc4ccn5c(=O)[nH]nc5c4cc3-c3ccccc3)cc2)CCC1
Summary of the method: as §1

[9] = compound: NCC(=O)Nc1ccc(-n2nc(C(F)(F)F)cc2-c2ccc3c(ccc4ccccc43)c2)cc1
Summary of the method: as §1

entinostat = compound: Nc1ccccc1NC(=O)c1ccc(CNC(=O)OCc2cccnc2)cc1 [entinostat]
Summary of the method: as §1

vorinostat = compound: O=C(CCCCCCC(=O)Nc1ccccc1)NO [vorinostat]
Summary of the method: as §1

citarinostat = compound: O=C(CCCCCCNC(=O)c1cnc(N(c2ccccc2)c2ccccc2Cl)nc1)NO [citarinostat]
Summary of the method: as §1

silmitasertib = compound: O=C(O)c1ccc2c(c1)nc(Nc1cccc(Cl)c1)c1ccncc12 [silmitasertib]
Summary of the method: as §1

[10] = compound: O=C1NC(=O)C(c2cnc3ccccn23)=C1c1cn2c3c(cc(F)cc13)CN(C(=O)N1CCCCC1)CC2
Summary of the method: as §1

[11] = compound: c1cc(OCCN2CCCCC2)cc(-c2n[nH]c3ccc(-c4nnc[nH]4)cc23)c1
Summary of the method: as §1

Measured: log2 fold change

MIEF1 (UniProt Q9NQG6)
inactive: bafetinib -0.133 | [1] 0.006 | nilotinib 0.022 | [2] -0.04 | dasatinib -0.028 | [3] 0.145 | [4] 0.09 | [5] 0.064 | tipifarnib -0.039 | mubritinib -0.029 | [6] -0.001 | [7] -0.14 | [8] -0.215 | [9] -0.034 | entinostat 0.056 | vorinostat 0.019 | citarinostat 0.073 | silmitasertib 0.006 | [10] 0.031 | [11] -0.01

MRPL2 (UniProt Q5T653)
inactive: bafetinib 0.182 | [1] 0.106 | nilotinib -0.189 | [2] 0.112 | dasatinib 0.023 | [3] 0.051 | [4] -0.099 | [5] -0.011 | tipifarnib 0.075 | mubritinib 0.062 | [6] -0.026 | [7] 0.077 | [8] -0.001 | [9] -0.006 | entinostat -0.036 | vorinostat 0.043 | citarinostat -0.001 | silmitasertib -0.048 | [10] -0.081 | [11] -0.046

MRPL35 (UniProt Q9NZE8)
inactive: bafetinib 0.167 | [1] 0.083 | nilotinib -0.081 | [2] 0.103 | dasatinib 0.034 | [3] -0.063 | [4] -0.21 | [5] 0.126 | tipifarnib 0.116 | mubritinib 0.055 | [6] -0.035 | [7] 0.093 | [8] -0.038 | [9] 0.179 | entinostat 0.021 | vorinostat -0.011 | citarinostat 0.052 | silmitasertib 0.084 | [10] 0.015 | [11] -0.101

MORF4L2 (UniProt Q15014)
inactive: bafetinib 0.026 | [1] -0.055 | nilotinib 0.009 | [2] 0.01 | dasatinib 0.045 | [3] -0.005 | [4] -0.087 | [5] -0.131 | tipifarnib 0.059 | mubritinib -0.076 | [6] 0.021 | [7] 0.047 | [8] 0.123 | [9] 0.027 | entinostat -0.066 | vorinostat 0.04 | citarinostat -0.044 | silmitasertib 0.087 | [10] 0.04 | [11] -0.121

MRPL34 (UniProt Q9BQ48)
inactive: bafetinib 0.176 | [1] 0.035 | nilotinib -0.083 | [2] 0.248 | dasatinib 0.065 | [3] -0.064 | [4] -0.142 | [5] -0.048 | tipifarnib 0.058 | mubritinib 0.032 | [6] 0.02 | [7] 0.018 | [8] 0.045 | [9] 0.095 | entinostat -0.041 | vorinostat 0.035 | citarinostat 0.004 | silmitasertib 0.053 | [10] 0.09 | [11] -0.175

MRPL41 (UniProt Q8IXM3)
inactive: bafetinib 0.227 | [1] 0.117 | nilotinib -0.044 | [2] 0.101 | dasatinib 0.004 | [3] -0.042 | [4] -0.214 | [5] -0.013 | tipifarnib 0.092 | mubritinib 0.043 | [6] -0.046 | [7] 0.037 | [8] -0.001 | [9] 0.075 | entinostat -0.011 | vorinostat 0.062 | citarinostat -0.013 | silmitasertib -0.09 | [10] 0.029 | [11] -0.119

MOSPD2 (UniProt Q8NHP6)
inactive: bafetinib -0.087 | [1] -0.035 | nilotinib 0.024 | [2] 0.029 | dasatinib 0.014 | [3] -0.061 | [4] -0.012 | [5] 0.006 | tipifarnib 0.054 | mubritinib 0.125 | [6] -0.02 | [7] 0 | [8] -0.17 | [9] -0.06 | entinostat 0.003 | vorinostat 0.036 | citarinostat 0.011 | silmitasertib 0.036 | [10] -0.003 | [11] 0.017

MRPL28 (UniProt Q13084)
inactive: bafetinib 0.156 | [1] 0.118 | nilotinib -0.02 | [2] 0.176 | dasatinib 0.006 | [3] 0.015 | [4] -0.112 | [5] 0.021 | tipifarnib 0.066 | mubritinib 0.042 | [6] 0.02 | [7] 0.059 | [8] 0.028 | [9] 0.192 | entinostat 0.024 | vorinostat 0.043 | citarinostat 0.043 | silmitasertib -0.072 | [10] 0.095 | [11] -0.013

MPHOSPH6 (UniProt Q99547)
inactive: bafetinib 0.08 | [1] -0.063 | nilotinib -0.062 | [2] 0.06 | dasatinib 0.016 | [3] 0.012 | [4] -0.07 | [5] -0.128 | tipifarnib 0.077 | mubritinib -0.058 | [6] 0.023 | [7] -0.011 | [8] 0.046 | [9] -0.064 | entinostat -0.001 | vorinostat 0.059 | citarinostat -0.02 | silmitasertib 0.137 | [10] 0.062 | [11] -0.137

MND1 (UniProt Q9BWT6)
inactive: bafetinib -0.168 | [1] 0.042 | nilotinib 0.032 | [2] 0.003 | dasatinib -0.037 | [3] -0.015 | [4] -0.056 | [5] -0.132 | tipifarnib 0.04 | mubritinib 0.043 | [6] -0.024 | [7] -0.012 | [8] -0.118 | [9] -0.119 | entinostat 0.041 | vorinostat -0.11 | citarinostat -0.033 | silmitasertib -0.014 | [10] -0.042 | [11] -0.146

MRPL19 (UniProt P49406)
inactive: bafetinib 0.187 | [1] 0.129 | nilotinib -0.111 | [2] 0.14 | dasatinib 0 | [3] 0.031 | [4] -0.197 | [5] -0.002 | tipifarnib 0.076 | mubritinib 0.003 | [6] 0.01 | [7] 0.119 | [8] -0.028 | [9] 0.072 | entinostat 0.046 | vorinostat 0.019 | citarinostat 0.025 | silmitasertib -0.039 | [10] -0.01 | [11] -0.037

MICU1 isoform 3 (UniProt Q9BPX6)
inactive: bafetinib -0.098 | [1] 0.106 | nilotinib -0.037 | [2] -0.012 | dasatinib -0.065 | [3] -0.022 | [4] -0.012 | [5] -0.055 | tipifarnib -0.019 | mubritinib -0.064 | [6] -0.048 | [7] -0.022 | [8] -0.012 | [9] 0.039 | entinostat 0.016 | vorinostat 0.017 | citarinostat 0.053 | silmitasertib 0.117 | [10] 0.027 | [11] -0.085

MRPL22 (UniProt Q9NWU5)
inactive: bafetinib 0.115 | [1] 0.054 | nilotinib 0.068 | [2] 0.175 | dasatinib 0.005 | [3] 0.005 | [4] -0.091 | [5] 0.016 | tipifarnib 0.144 | mubritinib 0.062 | [6] -0.012 | [7] 0.067 | [8] -0.077 | [9] 0.08 | entinostat -0.029 | vorinostat 0.062 | citarinostat -0.037 | silmitasertib 0.013 | [10] 0.073 | [11] -0.032

MRPL37 (UniProt Q9BZE1)
inactive: bafetinib 0.226 | [1] 0.005 | nilotinib -0.099 | [2] 0.144 | dasatinib -0.011 | [3] 0.011 | [4] -0.136 | [5] -0.017 | tipifarnib 0.091 | mubritinib 0.065 | [6] -0.088 | [7] 0.041 | [8] -0.071 | [9] 0.033 | entinostat 0.047 | vorinostat 0.005 | citarinostat -0.016 | silmitasertib -0.025 | [10] 0.028 | [11] -0.077

2 entries drawn at random from the list so far, as already listed:
MND1 (UniProt Q9BWT6)
inactive: bafetinib -0.168 | [1] 0.042 | nilotinib 0.032 | [2] 0.003 | dasatinib -0.037 | [3] -0.015 | [4] -0.056 | [5] -0.132 | tipifarnib 0.04 | mubritinib 0.043 | [6] -0.024 | [7] -0.012 | [8] -0.118 | [9] -0.119 | entinostat 0.041 | vorinostat -0.11 | citarinostat -0.033 | silmitasertib -0.014 | [10] -0.042 | [11] -0.146

MRPL37 (UniProt Q9BZE1)
inactive: bafetinib 0.226 | [1] 0.005 | nilotinib -0.099 | [2] 0.144 | dasatinib -0.011 | [3] 0.011 | [4] -0.136 | [5] -0.017 | tipifarnib 0.091 | mubritinib 0.065 | [6] -0.088 | [7] 0.041 | [8] -0.071 | [9] 0.033 | entinostat 0.047 | vorinostat 0.005 | citarinostat -0.016 | silmitasertib -0.025 | [10] 0.028 | [11] -0.077

(further entries)

MRPL17 (UniProt Q9NRX2)
inactive: bafetinib 0.135 | [1] 0.094 | nilotinib -0.106 | [2] 0.104 | dasatinib -0.088 | [3] -0.095 | [4] -0.114 | [5] -0.049 | tipifarnib 0.162 | mubritinib -0.024 | [6] 0.038 | [7] 0.032 | [8] 0.01 | [9] 0.033 | entinostat 0.03 | vorinostat 0.035 | citarinostat -0.024 | silmitasertib -0.018 | [10] -0.015 | [11] -0.102

MICOS13 (UniProt Q5XKP0)
inactive: bafetinib -0.114 | [1] 0.014 | nilotinib -0.054 | [2] 0.025 | dasatinib -0.085 | [3] 0.001 | [4] 0.046 | [5] 0.056 | tipifarnib -0.111 | mubritinib 0.117 | [6] -0.018 | [7] -0.023 | [8] -0.119 | [9] 0.029 | entinostat 0.041 | vorinostat 0.018 | citarinostat 0.028 | silmitasertib -0.02 | [10] -0.106 | [11] 0.025
